# Results published in patent US20070134261A1, “Effectors of innate immunity” (priority 2001, published 2007).
# At least one peptide structure holds a part that was inferred or is arguable (an end, a ring closure or a residue). No end group written: not given here.
# System: human CD14+ monocytes
# Experiment: Human 21K DNA microarrays of CD14+ monocytes from PBMC stimulated with SEQ ID NO: 7 and/or LPS (Tables 69-72)
# Format: cell-based
sequence,measurement,setting,value
KSRIVPAIPVSLL [SEQ ID NO: 7],"Fold change by LPS + peptide, gene ALDOB","ALDOB expression, LPS + peptide SEQ ID NO: 7",15.5 fold
same,"Fold Change by peptide, gene ALDOB","ALDOB expression, peptide alone",8.9 fold
same,"Fold change by LPS + peptide, gene ASTN2","ASTN2 expression, LPS + peptide SEQ ID NO: 7",3.7 fold
same,"Fold Change by peptide, gene ASTN2","ASTN2 expression, peptide alone",4.0 fold
same,"Fold change by LPS + peptide, gene CCL2","CCL2 expression, LPS + peptide SEQ ID NO: 7",2.9 fold
same,"Fold Change by peptide, gene CCL2","CCL2 expression, peptide alone",1.3 fold
same,"Fold change by LPS + peptide, gene CGI-117","CGI-117 expression, LPS + peptide SEQ ID NO: 7",1.3 fold
same,"Fold Change by peptide, gene CGI-117","CGI-117 expression, peptide alone",1.3 fold
same,"Fold change by LPS + peptide, gene COL7A1","COL7A1 expression, LPS + peptide SEQ ID NO: 7",1.4 fold
same,"Fold Change by peptide, gene COL7A1","COL7A1 expression, peptide alone",1.9 fold
same,"Fold change by LPS + peptide, gene CTLA4","CTLA4 expression, LPS + peptide SEQ ID NO: 7",2.7 fold
same,"Fold Change by peptide, gene CTLA4","CTLA4 expression, peptide alone",2.4 fold
same,"Fold change by LPS + peptide, gene FBXO32","FBXO32 expression, LPS + peptide SEQ ID NO: 7",1.9 fold
same,"Fold Change by peptide, gene FBXO32","FBXO32 expression, peptide alone",1.2 fold
same,"Fold change by LPS + peptide, gene FEZ2","FEZ2 expression, LPS + peptide SEQ ID NO: 7",25.8 fold
same,"Fold Change by peptide, gene FEZ2","FEZ2 expression, peptide alone",40.2 fold
same,"Fold change by LPS + peptide, gene FTCD","FTCD expression, LPS + peptide SEQ ID NO: 7",3.8 fold
same,"Fold Change by peptide, gene FTCD","FTCD expression, peptide alone",4.9 fold
same,"Fold change by LPS + peptide, gene GPD1","GPD1 expression, LPS + peptide SEQ ID NO: 7",89.7 fold
same,"Fold Change by peptide, gene GPD1","GPD1 expression, peptide alone",65.3 fold
same,"Fold change by LPS + peptide, gene HNF4A","HNF4A expression, LPS + peptide SEQ ID NO: 7",2.6 fold
same,"Fold Change by peptide, gene HNF4A","HNF4A expression, peptide alone",3.0 fold
same,"Fold change by LPS + peptide, gene ICAM3","ICAM3 expression, LPS + peptide SEQ ID NO: 7",1.7 fold
same,"Fold Change by peptide, gene ICAM3","ICAM3 expression, peptide alone",2.2 fold
same,"Fold change by LPS + peptide, gene IFITM1","IFITM1 expression, LPS + peptide SEQ ID NO: 7",1.4 fold
same,"Fold Change by peptide, gene IFITM1","IFITM1 expression, peptide alone",1.3 fold
same,"Fold change by LPS + peptide, gene KDELR1","KDELR1 expression, LPS + peptide SEQ ID NO: 7",1.5 fold
same,"Fold Change by peptide, gene KDELR1","KDELR1 expression, peptide alone",1.3 fold
same,"Fold change by LPS + peptide, gene MAFF","MAFF expression, LPS + peptide SEQ ID NO: 7",2.5 fold
same,"Fold Change by peptide, gene MAFF","MAFF expression, peptide alone",2.1 fold
same,"Fold change by LPS + peptide, gene NFKB2","NFKB2 expression, LPS + peptide SEQ ID NO: 7",2.8 fold
same,"Fold Change by peptide, gene NFKB2","NFKB2 expression, peptide alone",1.9 fold
same,"Fold change by LPS + peptide, gene NPAS2","NPAS2 expression, LPS + peptide SEQ ID NO: 7",1.8 fold
same,"Fold Change by peptide, gene NPAS2","NPAS2 expression, peptide alone",2.4 fold
same,"Fold change by LPS + peptide, gene NRXN1","NRXN1 expression, LPS + peptide SEQ ID NO: 7",25.9 fold
same,"Fold Change by peptide, gene NRXN1","NRXN1 expression, peptide alone",31.9 fold
same,"Fold change by LPS + peptide, gene O60290","O60290 expression, LPS + peptide SEQ ID NO: 7",2.9 fold
same,"Fold Change by peptide, gene O60290","O60290 expression, peptide alone",4.2 fold
same,"Fold change by LPS + peptide, gene O94940","O94940 expression, LPS + peptide SEQ ID NO: 7",1.4 fold
same,"Fold Change by peptide, gene O94940","O94940 expression, peptide alone",1.5 fold
same,"Fold change by LPS + peptide, gene PLAC8","PLAC8 expression, LPS + peptide SEQ ID NO: 7",2.2 fold
same,"Fold Change by peptide, gene PLAC8","PLAC8 expression, peptide alone",1.6 fold
same,"Fold change by LPS + peptide, gene PLCG1","PLCG1 expression, LPS + peptide SEQ ID NO: 7",17.0 fold
same,"Fold Change by peptide, gene PLCG1","PLCG1 expression, peptide alone",18.4 fold
same,"Fold change by LPS + peptide, gene PROZ","PROZ expression, LPS + peptide SEQ ID NO: 7",2.4 fold
same,"Fold Change by peptide, gene PROZ","PROZ expression, peptide alone",4.0 fold
same,"Fold change by LPS + peptide, gene PSMA1","PSMA1 expression, LPS + peptide SEQ ID NO: 7",2.7 fold
same,"Fold Change by peptide, gene PSMA1","PSMA1 expression, peptide alone",3.8 fold
same,"Fold change by LPS + peptide, gene Q7RTU0","Q7RTU0 expression, LPS + peptide SEQ ID NO: 7",8.4 fold
same,"Fold Change by peptide, gene Q7RTU0","Q7RTU0 expression, peptide alone",10.4 fold
same,"Fold change by LPS + peptide, gene Q8IUC6","Q8IUC6 expression, LPS + peptide SEQ ID NO: 7",1.4 fold
same,"Fold Change by peptide, gene Q8IUC6","Q8IUC6 expression, peptide alone",1.3 fold
same,"Fold change by LPS + peptide, gene Q8NC30","Q8NC30 expression, LPS + peptide SEQ ID NO: 7",1.7 fold
same,"Fold Change by peptide, gene Q8NC30","Q8NC30 expression, peptide alone",1.2 fold
same,"Fold change by LPS + peptide, gene Q8NI35","Q8NI35 expression, LPS + peptide SEQ ID NO: 7",53.9 fold
same,"Fold Change by peptide, gene Q8NI35","Q8NI35 expression, peptide alone",57.2 fold
same,"Fold change by LPS + peptide, gene Q9H5P1","Q9H5P1 expression, LPS + peptide SEQ ID NO: 7",8.6 fold
same,"Fold Change by peptide, gene Q9H5P1","Q9H5P1 expression, peptide alone",9.1 fold
same,"Fold change by LPS + peptide, gene Q96PN6","Q96PN6 expression, LPS + peptide SEQ ID NO: 7",3.3 fold
same,"Fold Change by peptide, gene Q96PN6","Q96PN6 expression, peptide alone",3.0 fold
same,"Fold change by LPS + peptide, gene SYT11","SYT11 expression, LPS + peptide SEQ ID NO: 7",6.1 fold
same,"Fold Change by peptide, gene SYT11","SYT11 expression, peptide alone",7.3 fold
same,"Fold change by LPS + peptide, gene TNF","TNF expression, LPS + peptide SEQ ID NO: 7",2.4 fold
same,"Fold Change by peptide, gene TNF","TNF expression, peptide alone",1.2 fold
same,"Fold change by LPS + peptide, gene UBXD2","UBXD2 expression, LPS + peptide SEQ ID NO: 7",6.8 fold
same,"Fold Change by peptide, gene UBXD2","UBXD2 expression, peptide alone",5.6 fold
same,Fold Change by LPS + SEQ 7,gene 7NF585A,1.8 fold
same,Fold Change by LPS + SEQ 7,gene 095893,−1.8 fold
same,Fold Change SEQ ID NO: 7,gene A2BP1,−1.6
same,Fold Change by LPS + SEQ 7,gene ABCA2,1.6 fold
same,Fold Change SEQ ID NO: 7,gene ABCA6,−1.7
same,Fold Change by LPS + SEQ 7,gene ABCE1,1.7 fold
same,Fold Change by LPS + SEQ 7,gene ABCG4,1.7 fold
same,Fold Change by LPS + SEQ 7,gene ABR,−1.6 fold
same,Fold Change SEQ ID NO: 7,gene ACE2,1.7
same,Fold Change by LPS + SEQ 7,"gene ACSL6, human monocytes",3.5 fold
same,Fold Change by LPS + SEQ 7,gene ACTA2,−1.6 fold
same,Fold Change by LPS + SEQ 7,gene ACTL7A,−1.6 fold
same,Fold Change by LPS + SEQ 7,gene ACVR1,−1.5 fold
same,Fold Change by LPS + SEQ 7,gene ADA,1.9 fold
same,Fold Change SEQ ID NO: 7,gene ADAM30,−1.6
same,Fold Change SEQ ID NO: 7,gene ADCY9,−1.7
same,Fold Change SEQ ID NO: 7,gene ADHFE1,−1.9
same,Fold Change by LPS + SEQ 7,gene ADM,2.2 fold
same,Fold Change by LPS + SEQ 7,gene ADORA2A,2.1 fold
same,Fold Change SEQ ID NO: 7,gene ADPRHL1,1.7
same,Fold Change SEQ ID NO: 7,gene ADRA2A,−2.2
same,Fold Change by LPS + SEQ 7,gene ADRB2,1.8 fold
same,Fold Change SEQ ID NO: 7,gene ADRM1,2.2
same,Fold Change by LPS + SEQ 7,"gene ADRM1, human monocytes",2.8 fold
